Patent US20240376207A1

Chains of the proteins cited; added tags and fusions are not shown. Lines headed by an entry give the natural chain unless they say otherwise; changes in a name come on top.
UniProt Q6DKI7: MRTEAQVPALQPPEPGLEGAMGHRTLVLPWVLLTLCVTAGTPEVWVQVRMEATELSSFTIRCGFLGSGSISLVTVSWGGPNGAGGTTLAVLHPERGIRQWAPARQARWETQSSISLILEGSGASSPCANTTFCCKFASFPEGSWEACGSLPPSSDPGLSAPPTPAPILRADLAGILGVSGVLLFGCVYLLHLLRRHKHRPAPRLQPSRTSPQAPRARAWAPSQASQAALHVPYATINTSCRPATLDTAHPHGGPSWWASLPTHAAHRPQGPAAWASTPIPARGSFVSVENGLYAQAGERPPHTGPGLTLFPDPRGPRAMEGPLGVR

Assays:
[1] = target: his-tagged human PVRIG (h-PVRIG-his) recombinant protein (human) (UniProt Q6DKI7); assay: BLI (Fortebio)
[2] = target: his-tagged human PVRIG (h-PVRIG-his) recombinant protein (human) (UniProt Q6DKI7); assay: ELISA, coated antigen

Row | binding [1] | binding [2] | Binder
1 | binds | binds | anti-PVRIG antibody 30 (antibody, human IgG4 S228P, F234A L235A, V domains shown) VH: HVQLVESGGGSVQAGGSLRLSCEASGYSYSGDCMGWFRRAPGKERDEGVATIDNAGRIKYADSVKGRFTISHGNGKYILYLQMNSLKPEDTDMYYCAAGWTFGGNCSPADWGQGTQVTVSS
2 | binds | binds | anti-PVRIG antibody 38 (antibody, human IgG4 S228P, F234A L235A, V domains shown) VH: QVQLVESGGGSVQAGGSLRLSCAASPSTYGPSDMAWFRQAPGKQREGVATISAAGRLTYYTDSVRGRFTISRDNAKNTMYLQMNSLKPEDTAMYYCAADFAGGSSLFADYKYWGQGTQVTVSS
3 | binds | binds | anti-PVRIG antibody 39 (antibody, human IgG4 S228P, F234A L235A, V domains shown) VH: QVQLVESGGGSVQAGGSLRLSCAASRYTSRTDCMGWFRQAPGKEREGVAHIDSDGIPRYVESVKGRFTISQDHAKNTLYLQMNSLKPEDSATYYCVVGFKFGDYCAPNDWGQGTQVTVSS
4 | binds | – | humanized anti-PVRIG antibody 151H7 (antibody, human IgG4 S228P, F234A L235A, V domains shown) VH: HVQLVESGGGLVQPGGSLRLSCVASASGFTYRPYCMAWFRQAPGKEREAVAGIDIFGGTTYADSVKGRFTASRDNAGFSLYLQMNSLRAEDTAVYYCAAGDSPDGRCPPLGQGLNYWGQGTMVTVSS
5 | binds | binds | anti-PVRIG antibody 151 (antibody, human IgG4 S228P, F234A L235A, V domains shown) VH: HVQLVESGGGSVQAGGSLRLSCVASASGFTYRPYCMAWFRQAPGKEREAVAGIDIFGGTTYADSVKGRFTASRDNAGFSLFLQMNDLKPEDTAMYYCAAGDSPDGRCPPLGQGLNYWGQGTQVTVSS
6 | binds | – | humanized anti-PVRIG antibody 20H5 (antibody, human IgG4 S228P, F234A L235A, V domains shown) VH: EVQLVESGGGLVQPGGSLRLSCAASGYTSRTDCMGWFRQAPGKEHEGVAHIDSDGIPRYVDSVKGRFTISQDHAKNSLYLQMNSLRAEDTAVYYCVVGFKFDEDYCAPNDWGQGTMVTVSS
7 | binds | – | positive antibody Tab5 (antibody, human IgG4 S228P, kappa, F234A L235A, V domains shown) VH: EVQLVESGGGVVKPGGSLRLSCAASGFTFGTSSMNWVRQAPGKGLEWVAVISFDGTEIHYADSVKGRFTISRDNSKSTVFLQMNSLRPDDTALYYCAKGSGNIYFYSGMDVWGQGTTVTVSS VL: DIQMTQSPSTLSASVGDRVTITCRAGQSISGWLAWFQQKPGKAPNLLIYETSTLESGVPSRFSGSGSGTEYTLTISSLQPDDFATYYCQQYYSYPLTFGQGTKVEIKR
8 | binds | – | humanized anti-PVRIG antibody 30H2 (antibody, human IgG4 S228P, F234A L235A, V domains shown) VH: EVQLVESGGGLVQPGGSLRLSCAASGFTFSGDCMGWFRQAPGKGLDEGVATIDNAGRIKYADSVKGRFTISRDNAKNSLYLQMNSLRAEDTAVYYCAAGWTFGGQCSPADWGQGTQVTVSS
9 | binds | – | humanized anti-PVRIG antibody 30H3 (antibody, human IgG4 S228P, F234A L235A, V domains shown) VH: EVQLVESGGGLVQPGGSLRLSCAASGYSYSGDCMGWFRQAPGKGLDEGVATIDNAGRIKYADSVKGRFTISRDNAKNSLYLQMNSLRAEDTAVYYCAAGWTFGGQCSPADWGQGTQVTVSS
10 | binds | – | humanized anti-PVRIG antibody 39H1 (antibody, human IgG4 S228P, F234A L235A, V domains shown) VH: EVQLVESGGGLVQPGGSLRLSCAASGFTFSTDCMGWFRQAPGKGLEGVAHIDSDGIPRYVESVKGRFTISRDNAKNSLYLQMNSLRAEDTAVYYCVVGFKFGDYCAPNDWGQGTMVTVSS
11 | binds | – | humanized anti-PVRIG antibody 39H4 (antibody, human IgG4 S228P, F234A L235A, V domains shown) VH: EVQLVESGGGLVQPGGSLRLSCAASGYTSRTDCMGWFRQAPGKGLEGVAHIDSDGIPRYVESVKGRFTISQDHAKNSLYLQMNSLRAEDTAVYYCVVGFKFGDYCAPNDWGQGTMVTVSS
12 | binds | – | humanized anti-PVRIG antibody 39H2 (antibody, human IgG4 S228P, F234A L235A, V domains shown) VH: EVQLVESGGGLVQPGGSLRLSCAASGFTSRTDCMGWFRQAPGKGLEGVAHIDSDGIPRYVESVKGRFTISRDNAKNSLYLQMNSLRAEDTAVYYCVVGFKFGDYCAPNDWGQGTMVTVSS

These are yes or no findings as the source states them, for the method shown. Binding calls can cover weak binding; strength is not graded here.
